# Percent effect of library compounds

By UniProt entry, the sequences of proteins in these tests, tags left out.
UniProt I6X8D2, whole entry: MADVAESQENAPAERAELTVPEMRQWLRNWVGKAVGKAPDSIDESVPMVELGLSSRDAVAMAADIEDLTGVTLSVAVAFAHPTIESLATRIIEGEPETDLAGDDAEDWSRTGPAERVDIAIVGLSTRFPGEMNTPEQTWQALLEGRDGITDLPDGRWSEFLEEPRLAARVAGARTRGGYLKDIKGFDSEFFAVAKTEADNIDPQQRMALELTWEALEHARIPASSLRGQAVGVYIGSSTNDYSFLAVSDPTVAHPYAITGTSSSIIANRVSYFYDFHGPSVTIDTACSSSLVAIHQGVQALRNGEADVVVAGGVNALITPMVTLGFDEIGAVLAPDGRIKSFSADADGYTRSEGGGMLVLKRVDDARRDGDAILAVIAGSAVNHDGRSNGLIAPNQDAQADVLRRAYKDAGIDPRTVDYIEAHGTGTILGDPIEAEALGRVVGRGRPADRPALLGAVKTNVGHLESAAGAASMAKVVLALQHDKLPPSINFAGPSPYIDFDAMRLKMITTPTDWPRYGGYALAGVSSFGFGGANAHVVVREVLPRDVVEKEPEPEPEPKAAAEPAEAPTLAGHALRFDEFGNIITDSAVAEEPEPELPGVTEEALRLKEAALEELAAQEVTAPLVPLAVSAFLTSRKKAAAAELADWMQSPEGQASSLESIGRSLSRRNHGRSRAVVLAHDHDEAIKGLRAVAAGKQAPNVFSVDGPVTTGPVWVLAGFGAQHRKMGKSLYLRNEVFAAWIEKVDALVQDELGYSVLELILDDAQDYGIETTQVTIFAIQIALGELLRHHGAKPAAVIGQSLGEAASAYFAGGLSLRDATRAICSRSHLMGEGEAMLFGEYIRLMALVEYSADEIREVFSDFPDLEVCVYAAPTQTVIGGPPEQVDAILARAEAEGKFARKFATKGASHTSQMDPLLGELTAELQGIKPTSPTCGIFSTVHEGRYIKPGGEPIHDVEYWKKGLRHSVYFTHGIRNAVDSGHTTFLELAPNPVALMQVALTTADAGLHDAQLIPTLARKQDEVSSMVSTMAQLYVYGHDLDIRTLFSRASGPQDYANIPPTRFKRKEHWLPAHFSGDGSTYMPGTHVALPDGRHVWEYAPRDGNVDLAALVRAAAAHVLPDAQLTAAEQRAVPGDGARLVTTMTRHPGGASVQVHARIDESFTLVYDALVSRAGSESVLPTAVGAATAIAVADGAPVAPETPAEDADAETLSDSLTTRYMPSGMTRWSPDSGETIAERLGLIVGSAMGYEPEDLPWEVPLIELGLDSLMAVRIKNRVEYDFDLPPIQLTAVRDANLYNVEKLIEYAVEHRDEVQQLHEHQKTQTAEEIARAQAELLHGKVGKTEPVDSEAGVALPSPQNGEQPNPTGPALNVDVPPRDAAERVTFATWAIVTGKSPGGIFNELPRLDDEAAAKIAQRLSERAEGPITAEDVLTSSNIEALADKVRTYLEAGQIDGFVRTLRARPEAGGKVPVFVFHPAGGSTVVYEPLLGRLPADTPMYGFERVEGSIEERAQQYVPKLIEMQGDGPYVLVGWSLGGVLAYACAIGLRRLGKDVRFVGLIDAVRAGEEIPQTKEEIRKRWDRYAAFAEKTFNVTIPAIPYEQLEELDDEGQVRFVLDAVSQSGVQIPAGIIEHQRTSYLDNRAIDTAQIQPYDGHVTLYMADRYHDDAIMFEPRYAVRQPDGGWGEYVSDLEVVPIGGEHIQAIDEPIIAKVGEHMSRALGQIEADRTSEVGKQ

From ChEMBL document CHEMBL3988442, “University of Dundee, Small-Polar-MMV Screening Library” (2021).

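Enzyme assay of the thioesterase domain of polyketide synthase 13; the read-out is not stated. Target: Polyketide synthase Pks13, Mycobacterium tuberculosis (UniProt I6X8D2). Concentration: 30 µM. The record gives no direction; the compounds picked for IC50 retests had high values, so higher reads as stronger inhibition. About 67,000 compounds were tested under these conditions; 0.46% (about 300) showed 50% or more at least once.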

The filed quantity is “Percent Effect” (%). The record does not define 0% and 100%; most values in the screen are far below 50% and negative numbers occur (in some assays of this library far below -100). Compounds were drawn at random from those tested, without regard to their results. Two or more numbers in one place are separate tests of the same structure; such repeats can differ widely.

With COc1ccc(F)cc1C(=O)N(C)Cc1cc(C)on1 the screen gave -21.94%.
With NC(=O)c1csc(N2C[C@@H](CN3CCOCC3)[C@@H](CO)C2)n1 the screen gave -5.382%.
With Cc1cc(C)n(CC(C)Nc2nc(C)nc3c2CCNC3)n1 (stereo not given) the screen gave -13.04%.
With CCNC(=O)CN(CC)S(=O)(=O)c1c(Br)cc2[nH]c(=O)oc2c1Cl the screen gave -30.28%.
With CC(C)(C)OC(=O)N1CSC[C@@H]1C(=O)NCc1ccncc1 the screen gave -31.74%.
With O=C(c1cccc(C(F)(F)F)c1)N1CC(=O)N(C2CCC2)CC(O)C1 (stereo not given) the screen gave 6.449%.
With Cc1csc(CNC(=O)NC2CCN(c3ncccn3)CC2)n1 the screen gave -18.06%.
With Cc1nc(CN2C(=O)CC[C@@H]3[C@H]2CCN3C(=O)C2CCOCC2)cs1 the screen gave -22.56%.
With COc1ccc(C2=Nn3c(CCCN)nnc3-c3ccccc3C2)cc1 the screen gave -33.04%.
With c1cc(-c2noc([C@@H]3Cc4nc[nH]c4CN3)n2)ccn1 the screen gave -31.18%.
With Cc1nc2c(c(=O)n1C)CCN(Cc1cc3ccccc3[nH]1)CC2 the screen gave -5.95%.
With Cc1noc(C)c1CN1CCC(c2nc3cc(Cl)ccc3o2)CC1 the screen gave -17.12%.
With CC1=Nc2c(c(=O)[nH]n2C(C)C)C(c2ccsc2)S1 (stereo not given) the screen gave -14.08% & -24.45%.
With Cc1ccc(N2CC3(COCCN(Cc4cnn(C)c4)C3)OCC2=O)s1 (stereo not given) the screen gave 2.639%.
With O=C(C1CN(c2ncc(F)cn2)CC12CCOCC2)N1CC=CC1 (stereo not given) the screen gave -19.81%.
With CN1CCN(C(=O)c2cc3sccc3n2Cc2ccccc2Cl)CC1 the screen gave 6.013%.
With Cc1[nH]c2c(F)cccc2c1CC(=O)N1CCN(C2CCSCC2)CC1 the screen gave 0.9014%.
With CN1CCC(CNC(=O)c2cccc(C(F)(F)F)c2)c2ccccc21 (stereo not given) the screen gave -30.47%.
With Cc1cc(C)nc(N2CCC(Cn3cc(C(=O)N(C)C)cn3)CC2)n1 the screen gave -4.382%.
With Cc1cc(C)c2nc(CNC3CCNC3=O)cc(O)c2c1 (stereo not given) the screen gave -15.39%.
With CNC(=O)[C@H]1C[C@@H]2CN(Cc3cccnc3OC)C[C@@H]2N1C(C)=O the screen gave -4.664%.
With O=C(NCc1nnc2n1CCCCC2)N(Cc1ccncc1)C1CC1 the screen gave -48.76%.
With CC(Cn1cccn1)NS(=O)(=O)Cc1ccccc1 (stereo not given) the screen gave -9.618%.
With Cn1c(=O)ccn(CC(=O)N2CCCC(n3cccn3)C2)c1=O (stereo not given) the screen gave 28.42%.
With CN1C(=O)c2cccc(NC(=O)c3cccc(S(C)(=O)=O)c3)c2C1=O the screen gave -26.06%.
With O=C(NCCc1nc2ccccc2s1)c1coc(CN2CCOCC2)c1 the screen gave -23.64%.
With COc1c(NC(=O)N(C)CCOc2ccccc2)c(C)nn1C the screen gave -26.31%.
With CNc1cc(C2CCCN2Cc2ccccc2OCC(=O)O)ccn1 (stereo not given) the screen gave -24.35%.
With CN(CCOc1ccc(Br)cc1)Cc1cscn1 the screen gave 4.846%.
With CCC(CC)(CC(=O)OC)NC(=O)Nc1nnc(-c2ccccn2)s1 the screen gave -31.87%.
With CCN(Cc1ccoc1)C(=O)c1cc(S(N)(=O)=O)c(C)o1 the screen gave -8.339%.
With CN(C)C(=O)N1CCn2nc(CNC(=O)CCC(F)(F)F)cc2C1 the screen gave -13.14%.
With CC(C)NC(=O)c1noc2c1CN(Cc1cnn(C)c1)CC2 the screen gave 4.154%.
With CC(C)(C)NC(=O)C1CSCN1C(=O)CCc1ccco1 (stereo not given) the screen gave -9.093%.
With O=C(Cn1c(=O)n(Cc2ccco2)c2ncccc21)NC1CCCCC1 the screen gave -16.45%.
With COc1ccc(-n2c(SC)nc(O)c(Cc3ccccc3)c2=O)cc1 the screen gave -11.83%.
With NC(=O)c1cccc2nc([C@H]3CCN(Cc4ccccc4F)C3)[nH]c12 the screen gave -41.68%.
With O=C1c2c(O)cc(O)cc2O[C@@H](c2ccc(O)cc2)[C@@H]1O the screen gave 3.919%.
With CN(Cc1cnccn1)CC1CCOc2ccccc2C1 (stereo not given) the screen gave -43.29%.
With CC(C)C1CN(C(=O)Nc2cnn(CC(F)F)c2)CCS1 (stereo not given) the screen gave -6.306%.
With COCCC1(C(=O)O)CCCN(Cc2ccccc2OCCO)C1 (stereo not given) the screen gave -21.44%.
With Cc1nc(C(C)Nc2nc3c(s2)c(C)nn3C)n[nH]1 (stereo not given) the screen gave 14.84%.
With O=C(c1ccc[nH]1)N1CCOCC12CCCC2 the screen gave 10.05%.
With CCOC(=O)[C@@H]1[C@@H](O)C(=O)N(C)C12CCN(C(=O)OC)CC2 the screen gave 10.08%.
With CNC(=O)NC(=O)CCSc1ccccc1Cl the screen gave 29.31%.
With NC(=O)C(Nc1cccc(CO)c1)c1ccc(Br)cc1 (stereo not given) the screen gave -24.04%.
With CCN1CC(C(=O)N(C)Cc2ccon2)CC1=O (stereo not given) the screen gave -22.93%.
With Cc1cc(O)n2nc(C3CCN(C(=O)c4ccccn4)CC3)cc2n1 the screen gave -0.4961%.
With NC(=O)CN1CCOCC(Cc2ccccc2)C1 (stereo not given) the screen gave 2.154%.
With COc1ccc(NC(C)=O)cc1OCc1cccnc1 the screen gave -18.91%.

Some entries from above, unchanged:

* COc1ccc(C2=Nn3c(CCCN)nnc3-c3ccccc3C2)cc1 | -33.04%
* O=C(c1ccc[nH]1)N1CCOCC12CCCC2 | 10.05%
* CN(CCOc1ccc(Br)cc1)Cc1cscn1 | 4.846%